Numbering of substitutions follows the chain as printed. Read-outs that look alike come from different tables or passages of the source. Results are given in words; binding and its absence hold for the method and conditions named. In cells and extracts the contact can be indirect. These calls come from enrichment with a bait or labelling near it, and not all partners need be listed. Sequences can lack the tags named with a protein. One block for each molecule: values may come before it.
Assays:
[1] = target: T1, KLHL6 wild type fused to C-terminal BioID2 (human) (UniProt Q8WZ60); experiment: proximity labelling; KLHL6 baits with C-terminal BioID2 stably expressed in SuDHL5, no added biotin; lysis with 0.1% SDS; biotinylated proteins purified on Strep-Tactin Sepharose; mass spectrometry; BioID2-tagged EmGFP controls
T1 sequence: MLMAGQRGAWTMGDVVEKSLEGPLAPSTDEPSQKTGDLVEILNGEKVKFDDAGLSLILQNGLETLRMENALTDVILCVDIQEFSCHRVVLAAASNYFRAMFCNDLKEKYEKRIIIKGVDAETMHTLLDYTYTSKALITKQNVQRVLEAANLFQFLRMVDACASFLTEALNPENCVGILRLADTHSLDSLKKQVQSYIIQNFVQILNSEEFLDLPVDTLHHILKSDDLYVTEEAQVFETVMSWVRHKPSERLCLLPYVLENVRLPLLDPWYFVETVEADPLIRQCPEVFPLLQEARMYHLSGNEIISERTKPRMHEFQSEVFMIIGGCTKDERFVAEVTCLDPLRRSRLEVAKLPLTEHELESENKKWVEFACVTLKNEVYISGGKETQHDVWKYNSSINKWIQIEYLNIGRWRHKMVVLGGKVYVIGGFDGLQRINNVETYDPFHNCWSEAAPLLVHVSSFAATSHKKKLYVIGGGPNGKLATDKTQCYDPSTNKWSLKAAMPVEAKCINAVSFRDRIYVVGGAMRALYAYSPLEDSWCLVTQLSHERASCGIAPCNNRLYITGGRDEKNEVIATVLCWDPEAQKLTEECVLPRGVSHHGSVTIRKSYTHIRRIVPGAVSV

The chains behind the UniProt entries cited, without tags or fusion partners. Residues count along the entry.
UniProt Q15843, residues 1-76: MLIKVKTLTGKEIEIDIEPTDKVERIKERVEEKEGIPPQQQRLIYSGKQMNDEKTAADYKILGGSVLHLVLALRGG
UniProt P11912, residues 33-226: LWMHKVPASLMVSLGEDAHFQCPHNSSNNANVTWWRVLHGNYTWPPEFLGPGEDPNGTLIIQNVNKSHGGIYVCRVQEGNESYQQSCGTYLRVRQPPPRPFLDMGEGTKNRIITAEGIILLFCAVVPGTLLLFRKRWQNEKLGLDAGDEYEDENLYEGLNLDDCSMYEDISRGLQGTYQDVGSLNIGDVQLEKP
UniProt Q14571: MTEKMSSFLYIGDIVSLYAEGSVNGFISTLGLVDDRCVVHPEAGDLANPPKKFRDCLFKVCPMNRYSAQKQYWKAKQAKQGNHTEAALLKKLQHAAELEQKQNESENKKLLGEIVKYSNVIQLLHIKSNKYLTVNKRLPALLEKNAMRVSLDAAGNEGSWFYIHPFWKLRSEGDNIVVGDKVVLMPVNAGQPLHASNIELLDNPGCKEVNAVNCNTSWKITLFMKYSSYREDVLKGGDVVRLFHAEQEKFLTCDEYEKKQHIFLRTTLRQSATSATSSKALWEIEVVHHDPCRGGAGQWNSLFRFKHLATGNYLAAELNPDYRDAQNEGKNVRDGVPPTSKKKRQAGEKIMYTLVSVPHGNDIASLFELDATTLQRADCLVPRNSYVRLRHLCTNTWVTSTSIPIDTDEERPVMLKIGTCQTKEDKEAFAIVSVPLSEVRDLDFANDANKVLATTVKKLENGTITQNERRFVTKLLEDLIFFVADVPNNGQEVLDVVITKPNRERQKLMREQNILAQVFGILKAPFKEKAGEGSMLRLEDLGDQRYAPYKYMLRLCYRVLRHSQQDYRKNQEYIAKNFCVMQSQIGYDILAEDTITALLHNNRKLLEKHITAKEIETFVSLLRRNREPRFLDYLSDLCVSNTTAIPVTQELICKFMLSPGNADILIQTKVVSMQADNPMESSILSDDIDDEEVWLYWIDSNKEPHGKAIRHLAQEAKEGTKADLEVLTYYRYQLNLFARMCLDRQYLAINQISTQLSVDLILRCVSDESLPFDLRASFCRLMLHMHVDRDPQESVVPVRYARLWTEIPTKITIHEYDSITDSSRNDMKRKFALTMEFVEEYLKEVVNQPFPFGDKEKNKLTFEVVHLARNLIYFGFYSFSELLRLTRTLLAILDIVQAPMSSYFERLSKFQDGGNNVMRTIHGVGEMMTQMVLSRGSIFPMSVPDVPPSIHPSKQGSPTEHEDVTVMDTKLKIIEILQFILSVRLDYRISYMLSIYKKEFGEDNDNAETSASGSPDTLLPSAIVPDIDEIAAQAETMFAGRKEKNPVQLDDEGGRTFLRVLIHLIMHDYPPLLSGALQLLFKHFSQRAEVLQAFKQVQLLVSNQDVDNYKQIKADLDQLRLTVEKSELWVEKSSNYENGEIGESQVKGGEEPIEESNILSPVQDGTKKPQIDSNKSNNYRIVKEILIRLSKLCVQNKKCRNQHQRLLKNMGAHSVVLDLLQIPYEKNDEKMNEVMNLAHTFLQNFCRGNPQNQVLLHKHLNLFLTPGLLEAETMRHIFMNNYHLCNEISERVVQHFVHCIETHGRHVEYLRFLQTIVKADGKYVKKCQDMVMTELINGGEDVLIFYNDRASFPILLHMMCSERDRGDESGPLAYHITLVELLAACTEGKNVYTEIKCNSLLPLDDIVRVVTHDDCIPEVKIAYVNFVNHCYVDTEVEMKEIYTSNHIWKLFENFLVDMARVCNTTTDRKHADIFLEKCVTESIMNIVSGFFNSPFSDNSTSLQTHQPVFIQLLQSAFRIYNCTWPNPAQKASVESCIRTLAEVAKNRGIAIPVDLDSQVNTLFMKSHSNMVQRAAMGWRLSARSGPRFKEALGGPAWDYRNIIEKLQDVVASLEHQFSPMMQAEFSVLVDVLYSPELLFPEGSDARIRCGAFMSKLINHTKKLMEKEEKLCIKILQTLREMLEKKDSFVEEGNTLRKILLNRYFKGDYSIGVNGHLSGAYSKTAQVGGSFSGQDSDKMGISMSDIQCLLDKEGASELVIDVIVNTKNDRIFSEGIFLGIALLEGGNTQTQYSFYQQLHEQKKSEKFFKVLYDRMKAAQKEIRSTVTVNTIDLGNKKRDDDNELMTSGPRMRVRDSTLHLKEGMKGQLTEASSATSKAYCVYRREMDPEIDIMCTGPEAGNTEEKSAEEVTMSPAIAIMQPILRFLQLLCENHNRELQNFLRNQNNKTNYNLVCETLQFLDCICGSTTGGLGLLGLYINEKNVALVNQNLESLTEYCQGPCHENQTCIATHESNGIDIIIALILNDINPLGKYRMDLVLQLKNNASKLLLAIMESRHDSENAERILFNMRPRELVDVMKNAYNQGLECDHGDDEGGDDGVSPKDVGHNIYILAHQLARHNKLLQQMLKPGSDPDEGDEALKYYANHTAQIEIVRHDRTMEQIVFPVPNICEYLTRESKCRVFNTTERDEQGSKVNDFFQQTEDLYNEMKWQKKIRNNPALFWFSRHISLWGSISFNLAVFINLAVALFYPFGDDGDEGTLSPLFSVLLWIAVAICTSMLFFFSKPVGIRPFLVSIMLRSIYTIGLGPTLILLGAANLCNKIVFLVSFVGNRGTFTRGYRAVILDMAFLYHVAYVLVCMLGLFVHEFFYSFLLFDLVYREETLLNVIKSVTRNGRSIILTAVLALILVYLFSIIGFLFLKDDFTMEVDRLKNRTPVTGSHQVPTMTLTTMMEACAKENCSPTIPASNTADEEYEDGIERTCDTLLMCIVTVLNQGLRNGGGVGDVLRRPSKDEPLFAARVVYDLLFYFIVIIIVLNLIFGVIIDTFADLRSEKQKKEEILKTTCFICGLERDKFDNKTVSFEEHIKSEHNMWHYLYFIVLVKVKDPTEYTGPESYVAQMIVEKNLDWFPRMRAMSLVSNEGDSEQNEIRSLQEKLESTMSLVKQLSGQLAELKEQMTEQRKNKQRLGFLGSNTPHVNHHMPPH

[2] = target: T2, KLHL6 E568K, C-terminal Strep-HA tag (human) (UniProt Q8WZ60); experiment: affinity purification with mass spectrometry; C-terminally Strep-HA-tagged KLHL6 baits stably expressed in SuDHL5; lysis in 0.5% IGEPAL, 50 mmol/L HEPES pH 8.0, 150 mmol/L NaCl, 5 mmol/L EDTA; one-step purification on Strep-Tactin Sepharose; EmGFP controls; SAINT and DESeq2; also done 60 seconds after BCR cross-linking with anti-human IgM F(ab')2 or control goat IgG
T2 sequence: T1 sequence with E568K

[3] = target: T3, KLHL6 wild type, C-terminal Strep-HA tag (KLHL6-strHA) (human) (UniProt Q8WZ60); experiment: as above
T3 sequence: T1 sequence

[4] = target: T3, KLHL6 wild type, C-terminal Strep-HA tag (KLHL6-strHA) (human); experiment: as above; remark: listed apart in the source

- binding [2]: binds
Molecule: Nedd8 (from UniProt Q15843 1-76)

- binding [1]: binds
- binding [2]: binds
- binding [3]: binds
Molecule: CD79A (from UniProt P11912 33-226)

- binding [4]: binds
B1: Kelch-chaperone NuDCD3 (protein, UniProt Q8IVD9 1-361)
chain: METGAAELYDQALLGILQHVGNVQDFLRVLFGFLYRKTDFYRLLRHPSDRMGFPPGAAQALVLQVFKTFDHMARQDDEKRRQELEEKIRRKEEEEAKTVSAAAAEKEPVPVPVQEIEIDSTTELDGHQEVEKVQPPGPVKEMAHGSQEAEAPGAVAGAAEVPREPPILPRIQEQFQKNPDSYNGAVRENYTWSQDYTDLEVRVPVPKHVVKGKQVSVALSSSSIRVAMLEENGERVLMEGKLTHKINTESSLWSLEPGKCVLVNLSKVGEYWWNAILEGEEPIDIDKINKERSMATVDEEEQAVLDRLTFDYHQKLQGKPQSHELKVHEMLKKGWDAEGSPFRGQRFDPAMFNISPGAVQF

The next lines start with the molecule.

Molecule: inositol 1,4,5-trisphosphate (IP3) receptor type 2 (ITPR2) (from UniProt Q14571 1-2701)
- binding [1]: binds

B2: SUGT1 (protein, UniProt Q9Y2Z0 1-365)
chain: MAAAAAGTATSQRFFQSFSDALIDEDPQAALEELTKALEQKPDDAQYYCQRAYCHILLGNYCVAVADAKKSLELNPNNSTAMLRKGICEYHEKNYAAALETFTEGQKLDIETGFHRVGQAGLQLLTSSDPPALDSQSAGITGADANFSVWIKRCQEAQNGSESEVWTHQSKIKYDWYQTESQVVITLMIKNVQKNDVNVEFSEKELSALVKLPSGEDYNLKLELLHPIIPEQSTFKVLSTKIEIKLKKPEAVRWEKLEGQGDVPTPKQFVADVKNLYPSSSPYTRNWDKLVGEIKEEEKNEKLEGDAALNRLFQQIYSDGSDEVKRAMNKSFMESGGTVLSTNWSDVGKRKVEINPPDDMEWKKY
- binding [4]: binds

B3: Roquin-2 (protein, UniProt Q9HBD1 1-1191)
chain: MPVQAAQWTEFLSCPICYNEFDENVHKPISLGCSHTVCKTCLNKLHRKACPFDQTAINTDIDVLPVNFALLQLVGAQVPDHQSIKLSNLGENKHYEVAKKCVEDLALYLKPLSGGKGVASLNQSALSRPMQRKLVTLVNCQLVEEEGRVRAMRAARSLGERTVTELILQHQNPQQLSANLWAAVRARGCQFLGPAMQEEALKLVLLALEDGSALSRKVLVLFVVQRLEPRFPQASKTSIGHVVQLLYRASCFKVTKRDEDSSLMQLKEEFRSYEALRREHDAQIVHIAMEAGLRISPEQWSSLLYGDLAHKSHMQSIIDKLQSPESFAKSVQELTIVLQRTGDPANLNRLRPHLELLANIDPNPDAVSPTWEQLENAMVAVKTVVHGLVDFIQNYSRKGHETPQPQPNSKYKTSMCRDLRQQGGCPRGTNCTFAHSQEELEKYRLRNKKINATVRTFPLLNKVGVNNTVTTTAGNVISVIGSTETTGKIVPSTNGISNAENSVSQLISRSTDSTLRALETVKKVGKVGANGQNAAGPSADSVTENKIGSPPKTPVSNVAATSAGPSNVGTELNSVPQKSSPFLTRVPVYPPHSENIQYFQDPRTQIPFEVPQYPQTGYYPPPPTVPAGVAPCVPRFVRSNNVPESSLPPASMPYADHYSTFSPRDRMNSSPYQPPPPQPYGPVPPVPSGMYAPVYDSRRIWRPPMYQRDDIIRSNSLPPMDVMHSSVYQTSLRERYNSLDGYYSVACQPPSEPRTTVPLPREPCGHLKTSCEEQIRRKPDQWAQYHTQKAPLVSSTLPVATQSPTPPSPLFSVDFRADFSESVSGTKFEEDHLSHYSPWSCGTIGSCINAIDSEPKDVIANSNAVLMDLDSGDVKRRVHLFETQRRTKEEDPIIPFSDGPIISKWGAISRSSRTGYHTTDPVQATASQGSATKPISVSDYVPYVNAVDSRWSSYGNEATSSAHYVERDRFIVTDLSGHRKHSSTGDLLSLELQQAKSNSLLLQREANALAMQQKWNSLDEGRHLTLNLLSKEIELRNGELQSDYTEDATDTKPDRDIELELSALDTDEPDGQSEPIEEILDIQLGISSQNDQLLNGMAVENGHPVQQHQKEPPKQKKQSLGEDHVILEEQKTILPVTSCFSQPLPVSISNASCLPITTSVSAGNLILKTHVMSEDKNDFLKPVANGKMVNS
- binding [4]: binds

Source: publication PMC11369598
